The supplement of paper PMC10849652
The other results are listed elsewhere or left out.

Sequences of proteins named here, by UniProt entry; tags and fusion partners are left off. A change or cut given only in a name is not applied to a line headed by its entry.
UniProt Q9Y3D2: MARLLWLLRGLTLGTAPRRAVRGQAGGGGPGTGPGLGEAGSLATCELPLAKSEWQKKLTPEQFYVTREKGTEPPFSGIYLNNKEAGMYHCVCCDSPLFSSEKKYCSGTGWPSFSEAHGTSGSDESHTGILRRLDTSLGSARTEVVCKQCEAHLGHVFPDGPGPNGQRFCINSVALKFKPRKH
UniProt Q13614, whole entry, looked up: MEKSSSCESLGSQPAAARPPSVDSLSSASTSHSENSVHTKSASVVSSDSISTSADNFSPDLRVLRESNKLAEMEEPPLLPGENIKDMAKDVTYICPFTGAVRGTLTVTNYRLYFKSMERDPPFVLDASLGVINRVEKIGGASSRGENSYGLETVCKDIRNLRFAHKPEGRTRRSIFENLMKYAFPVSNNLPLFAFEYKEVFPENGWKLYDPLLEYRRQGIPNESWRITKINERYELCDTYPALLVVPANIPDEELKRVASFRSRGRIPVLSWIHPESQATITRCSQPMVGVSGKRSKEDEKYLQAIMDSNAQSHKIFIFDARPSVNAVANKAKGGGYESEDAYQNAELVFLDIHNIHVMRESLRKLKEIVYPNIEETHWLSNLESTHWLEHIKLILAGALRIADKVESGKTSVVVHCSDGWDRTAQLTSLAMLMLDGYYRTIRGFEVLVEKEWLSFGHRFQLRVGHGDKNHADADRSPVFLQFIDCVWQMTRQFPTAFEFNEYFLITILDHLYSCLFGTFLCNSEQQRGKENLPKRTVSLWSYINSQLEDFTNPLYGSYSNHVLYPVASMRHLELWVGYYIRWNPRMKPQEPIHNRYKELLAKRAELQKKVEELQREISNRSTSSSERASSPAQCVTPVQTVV
UniProt Q13615: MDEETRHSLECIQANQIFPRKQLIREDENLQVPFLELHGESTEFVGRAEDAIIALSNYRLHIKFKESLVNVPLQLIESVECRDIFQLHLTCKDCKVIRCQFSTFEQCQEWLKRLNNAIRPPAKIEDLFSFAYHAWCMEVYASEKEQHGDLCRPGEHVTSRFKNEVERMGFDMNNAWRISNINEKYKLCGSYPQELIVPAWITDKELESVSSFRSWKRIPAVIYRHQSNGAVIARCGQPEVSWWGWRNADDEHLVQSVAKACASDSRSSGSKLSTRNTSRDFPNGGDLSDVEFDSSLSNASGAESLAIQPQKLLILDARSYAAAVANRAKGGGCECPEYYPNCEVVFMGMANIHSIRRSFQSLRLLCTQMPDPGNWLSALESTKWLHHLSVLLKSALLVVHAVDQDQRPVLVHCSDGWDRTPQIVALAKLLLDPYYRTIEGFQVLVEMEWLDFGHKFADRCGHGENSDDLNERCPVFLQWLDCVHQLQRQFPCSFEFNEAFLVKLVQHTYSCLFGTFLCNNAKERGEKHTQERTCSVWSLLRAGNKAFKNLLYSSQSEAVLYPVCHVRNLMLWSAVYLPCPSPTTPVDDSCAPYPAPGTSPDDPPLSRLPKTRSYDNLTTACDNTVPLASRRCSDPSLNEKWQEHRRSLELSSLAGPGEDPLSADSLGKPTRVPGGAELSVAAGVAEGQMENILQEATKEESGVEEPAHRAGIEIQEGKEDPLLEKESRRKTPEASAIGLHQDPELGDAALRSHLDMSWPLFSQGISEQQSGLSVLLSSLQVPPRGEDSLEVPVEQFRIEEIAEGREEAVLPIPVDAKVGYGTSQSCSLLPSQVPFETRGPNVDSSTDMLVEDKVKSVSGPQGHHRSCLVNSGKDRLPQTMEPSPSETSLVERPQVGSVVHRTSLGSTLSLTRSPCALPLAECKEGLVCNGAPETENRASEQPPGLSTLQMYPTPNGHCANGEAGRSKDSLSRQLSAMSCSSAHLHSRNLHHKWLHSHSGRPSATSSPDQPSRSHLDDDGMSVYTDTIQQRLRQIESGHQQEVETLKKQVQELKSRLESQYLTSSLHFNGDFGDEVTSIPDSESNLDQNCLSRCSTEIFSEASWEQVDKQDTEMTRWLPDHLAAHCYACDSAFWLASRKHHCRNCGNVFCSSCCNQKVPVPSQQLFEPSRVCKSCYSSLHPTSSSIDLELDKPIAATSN
UniProt Q96DH6: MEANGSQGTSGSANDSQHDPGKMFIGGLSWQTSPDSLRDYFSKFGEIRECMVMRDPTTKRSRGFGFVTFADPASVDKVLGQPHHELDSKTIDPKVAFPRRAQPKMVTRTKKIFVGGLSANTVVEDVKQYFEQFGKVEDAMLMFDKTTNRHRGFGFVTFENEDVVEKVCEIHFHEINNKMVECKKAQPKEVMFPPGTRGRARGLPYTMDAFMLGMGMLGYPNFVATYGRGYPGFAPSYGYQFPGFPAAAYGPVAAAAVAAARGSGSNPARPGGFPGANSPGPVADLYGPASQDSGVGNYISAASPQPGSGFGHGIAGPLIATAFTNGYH
UniProt P58546, whole entry, looked up: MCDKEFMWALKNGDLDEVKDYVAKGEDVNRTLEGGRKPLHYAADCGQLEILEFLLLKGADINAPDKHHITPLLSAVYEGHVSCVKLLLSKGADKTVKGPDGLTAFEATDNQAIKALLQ
UniProt Q13330: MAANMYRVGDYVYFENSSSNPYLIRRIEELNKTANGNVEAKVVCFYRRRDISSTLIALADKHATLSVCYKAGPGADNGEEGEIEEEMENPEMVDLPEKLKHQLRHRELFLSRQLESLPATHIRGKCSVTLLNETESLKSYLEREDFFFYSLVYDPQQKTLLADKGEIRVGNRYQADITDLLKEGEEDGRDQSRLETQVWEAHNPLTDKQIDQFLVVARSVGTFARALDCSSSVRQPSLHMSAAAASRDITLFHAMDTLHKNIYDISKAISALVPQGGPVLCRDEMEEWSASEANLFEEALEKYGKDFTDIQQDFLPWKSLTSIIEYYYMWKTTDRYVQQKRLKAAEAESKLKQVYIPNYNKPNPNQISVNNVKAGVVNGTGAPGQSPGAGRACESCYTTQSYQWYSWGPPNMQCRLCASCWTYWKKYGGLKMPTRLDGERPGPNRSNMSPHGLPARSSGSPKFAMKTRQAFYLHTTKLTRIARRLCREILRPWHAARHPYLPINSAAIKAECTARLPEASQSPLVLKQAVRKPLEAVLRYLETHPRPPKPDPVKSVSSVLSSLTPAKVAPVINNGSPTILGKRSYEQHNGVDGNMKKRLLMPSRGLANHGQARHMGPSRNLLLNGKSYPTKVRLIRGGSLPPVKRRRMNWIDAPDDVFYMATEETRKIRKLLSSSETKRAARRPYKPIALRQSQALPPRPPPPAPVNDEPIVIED
UniProt Q68DK7: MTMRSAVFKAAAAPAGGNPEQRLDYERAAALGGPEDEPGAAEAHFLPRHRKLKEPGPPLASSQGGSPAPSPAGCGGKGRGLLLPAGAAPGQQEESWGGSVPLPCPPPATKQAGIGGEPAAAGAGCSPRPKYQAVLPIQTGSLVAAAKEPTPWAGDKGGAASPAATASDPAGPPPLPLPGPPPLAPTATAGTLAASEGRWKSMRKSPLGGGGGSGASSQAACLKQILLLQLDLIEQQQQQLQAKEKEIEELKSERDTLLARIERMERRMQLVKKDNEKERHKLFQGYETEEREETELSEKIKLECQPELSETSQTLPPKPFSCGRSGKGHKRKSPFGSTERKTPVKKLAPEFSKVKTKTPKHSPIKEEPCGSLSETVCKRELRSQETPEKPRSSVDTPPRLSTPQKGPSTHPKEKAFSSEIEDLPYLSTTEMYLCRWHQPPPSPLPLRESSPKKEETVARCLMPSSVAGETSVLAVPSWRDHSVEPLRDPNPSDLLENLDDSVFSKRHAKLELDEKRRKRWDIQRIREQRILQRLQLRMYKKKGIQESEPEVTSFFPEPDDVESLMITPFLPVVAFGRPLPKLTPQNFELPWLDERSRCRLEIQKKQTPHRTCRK
UniProt P03915, whole entry, looked up: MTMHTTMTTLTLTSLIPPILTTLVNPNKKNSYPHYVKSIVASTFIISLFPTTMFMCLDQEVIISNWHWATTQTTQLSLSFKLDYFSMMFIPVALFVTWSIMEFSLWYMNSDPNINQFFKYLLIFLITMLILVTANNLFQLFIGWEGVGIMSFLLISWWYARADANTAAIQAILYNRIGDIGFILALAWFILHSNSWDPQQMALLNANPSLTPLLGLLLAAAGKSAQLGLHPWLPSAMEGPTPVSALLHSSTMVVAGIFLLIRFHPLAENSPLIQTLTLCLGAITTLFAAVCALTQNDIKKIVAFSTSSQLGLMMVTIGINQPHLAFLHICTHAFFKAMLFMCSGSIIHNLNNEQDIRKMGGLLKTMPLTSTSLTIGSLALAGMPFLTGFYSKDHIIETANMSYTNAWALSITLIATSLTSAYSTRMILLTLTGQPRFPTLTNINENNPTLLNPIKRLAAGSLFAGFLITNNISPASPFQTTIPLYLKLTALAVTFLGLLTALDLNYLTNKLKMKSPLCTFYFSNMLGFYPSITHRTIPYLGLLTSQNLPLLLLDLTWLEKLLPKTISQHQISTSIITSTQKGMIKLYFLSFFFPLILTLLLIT
UniProt O75431: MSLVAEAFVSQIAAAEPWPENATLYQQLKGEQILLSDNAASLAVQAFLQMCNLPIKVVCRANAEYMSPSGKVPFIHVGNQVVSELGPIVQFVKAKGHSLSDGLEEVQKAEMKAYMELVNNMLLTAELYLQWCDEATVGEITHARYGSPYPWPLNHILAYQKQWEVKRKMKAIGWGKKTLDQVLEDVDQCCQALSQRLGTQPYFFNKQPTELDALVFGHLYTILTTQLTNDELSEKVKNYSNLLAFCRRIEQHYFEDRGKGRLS
UniProt Q96QG7: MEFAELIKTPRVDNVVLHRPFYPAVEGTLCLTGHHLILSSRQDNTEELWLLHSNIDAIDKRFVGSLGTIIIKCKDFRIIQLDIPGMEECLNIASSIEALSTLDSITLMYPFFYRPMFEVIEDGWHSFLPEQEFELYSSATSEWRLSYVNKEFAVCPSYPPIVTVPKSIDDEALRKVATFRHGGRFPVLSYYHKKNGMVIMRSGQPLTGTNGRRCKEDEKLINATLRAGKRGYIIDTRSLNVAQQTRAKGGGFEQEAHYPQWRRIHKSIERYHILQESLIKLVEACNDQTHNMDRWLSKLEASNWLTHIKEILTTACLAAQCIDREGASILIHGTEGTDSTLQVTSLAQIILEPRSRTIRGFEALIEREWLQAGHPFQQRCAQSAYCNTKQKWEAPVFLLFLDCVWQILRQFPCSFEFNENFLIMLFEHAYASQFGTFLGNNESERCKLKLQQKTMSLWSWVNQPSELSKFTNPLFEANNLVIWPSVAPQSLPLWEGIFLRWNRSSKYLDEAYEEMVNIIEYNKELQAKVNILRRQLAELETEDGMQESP
UniProt Q15390: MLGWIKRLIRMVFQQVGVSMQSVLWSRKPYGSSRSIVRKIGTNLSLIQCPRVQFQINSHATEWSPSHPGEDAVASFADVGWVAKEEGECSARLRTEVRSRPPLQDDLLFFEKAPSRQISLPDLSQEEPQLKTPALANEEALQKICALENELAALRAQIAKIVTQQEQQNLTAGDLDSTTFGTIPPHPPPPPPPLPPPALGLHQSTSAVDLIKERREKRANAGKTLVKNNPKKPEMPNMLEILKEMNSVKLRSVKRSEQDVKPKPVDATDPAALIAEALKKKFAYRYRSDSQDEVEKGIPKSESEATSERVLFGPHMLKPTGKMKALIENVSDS
UniProt P26038, whole entry, looked up: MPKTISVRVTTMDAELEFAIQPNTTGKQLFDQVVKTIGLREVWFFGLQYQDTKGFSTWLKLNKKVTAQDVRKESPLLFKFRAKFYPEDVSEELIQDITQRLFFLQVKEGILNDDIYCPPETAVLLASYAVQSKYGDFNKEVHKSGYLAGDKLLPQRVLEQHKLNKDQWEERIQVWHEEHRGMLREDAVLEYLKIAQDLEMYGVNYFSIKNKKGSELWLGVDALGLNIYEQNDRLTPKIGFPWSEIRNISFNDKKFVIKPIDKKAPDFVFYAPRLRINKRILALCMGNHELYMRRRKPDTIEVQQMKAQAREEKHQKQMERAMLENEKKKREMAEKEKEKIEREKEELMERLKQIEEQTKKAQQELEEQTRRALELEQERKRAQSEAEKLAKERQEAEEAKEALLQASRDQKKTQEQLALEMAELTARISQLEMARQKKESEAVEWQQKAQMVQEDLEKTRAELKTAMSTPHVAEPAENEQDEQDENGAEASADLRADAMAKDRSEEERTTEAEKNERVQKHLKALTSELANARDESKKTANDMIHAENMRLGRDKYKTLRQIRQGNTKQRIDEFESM

Columns and labels:
Assay in all cases: log2 fold change, soluble protein after heating vs DMSO (PISA); higher = thermal stabilisation; K562 lysate, 10 uM; active = over 0.2 and 3.5 SD of the protein, either way, in both replicates (recomputed)
ibrutinib = compound: C=CC(=O)N1CCC[C@@H](n2nc(-c3ccc(Oc4ccccc4)cc3)c3c(N)ncnc32)C1 [ibrutinib]
How it was run: (§1)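 Thermal stability, expressed as log-two fold change relative to solvent controls, is given from duplicates. Crude K562 extract in PBS pH 7.4 with 1 mM MgCl2, at 1 mg/mL protein, was treated with 10 μM compound for 30 min and heated in aliquots for 3 min across 48°C-58°C. After pooling, adjustment to 0.5% NP-40 at 4°C and centrifugation at 21,000xg for 90 min, supernatant protein was measured by TMTpro 16plex LC-MS/MS with channel sums equalised.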

[1] = compound: CC(=O)c1cnc2ccc(-c3cc(Cl)c(O)c(Cl)c3)nc2c1N[C@H]1CC[C@H](CN(C)C)CC1
How it was run: as §1

ralimetinib = compound: CC(C)(C)Cn1c(N)nc2ccc(-c3[nH]c(C(C)(C)C)nc3-c3ccc(F)cc3)nc21 [ralimetinib]
How it was run: as §1

[2] = compound: CC(C)(O)CC(=O)NCCn1ccc2ncnc(Nc3ccc(Oc4cccc(C(F)(F)F)c4)c(Cl)c3)c21
How it was run: as §1

[3] = compound: CC(C)C1=C2N=C(C=C(N2N=C1)NCC3=CC=CC=C3)NCCCCCCN
How it was run: as §1

[4] = compound: CC1=C(C(CC(=O)N1)C2=CC=C(C=C2)C(F)(F)F)C(=O)NC3=C(C=C4C(=C3)C=NN4)F
How it was run: as §1

[5] = compound: CC1=C(C2=C(C=C1)C(=O)C3=CC=CC=C3N2CCCN)C
How it was run: as §1

[6] = compound: CC1=C(C=C(C=C1)NC(=O)C2=CC(=CC=C2)C(C)(C)C#N)NC3=CC4=C(C=C3)N=CN(C4=O)C
How it was run: as §1

[7] = compound: CC1=C(C=C(C=C1)NC(=O)C2=CC(=CC=C2)N(C)C)NC(=O)C3=CC=C(C=C3)O
How it was run: as §1

[8] = compound: CC1=CC=C(C=C1)SC2=C3C=C(SC3=CN=C2)C(=O)N
How it was run: as §1

vemurafenib = compound: CCCS(=O)(=O)Nc1ccc(F)c(C(=O)c2c[nH]c3ncc(-c4ccc(Cl)cc4)cc23)c1F [vemurafenib]
How it was run: as §1

[9] = compound: CCCS(=O)(=O)Nc1ccc(F)c(C(=O)c2c[nH]c3ncc(Cl)cc23)c1F
How it was run: as §1

barasertib = compound: CCN(CCCOc1ccc2c(Nc3cc(CC(=O)Nc4cccc(F)c4)[nH]n3)ncnc2c1)CCOP(=O)(O)O [barasertib]
How it was run: as §1

[10] = compound: CC[C@@H]1C(=O)N(C)c2cnc(Nc3ccc(C(=O)NC4CCN(C)CC4)cc3OC)nc2N1C1CCCC1
How it was run: as §1

volasertib = compound: CC[C@@H]1C(=O)N(C)c2cnc(Nc3ccc(C(=O)N[C@H]4CC[C@H](N5CCN(CC6CC6)CC5)CC4)cc3OC)nc2N1C(C)C [volasertib]
How it was run: as §1

[11] = compound: CCn1c(C(=O)N(C2CC2)C2CC2)cc2c3c(ncn3C)c(Nc3cc(C)n(C)n3)nc21
How it was run: as §1

[12] = compound: CCn1cc(-c2ccnc3[nH]c(-c4cccc(CN(C)C)c4)cc23)c(-c2ccc(NC(=O)N(C)C)cc2)n1
How it was run: as §1

[13] = compound: CN1CCC(CNc2ccc3ncc(-c4cccc(OC(F)(F)F)c4)n3n2)CC1
How it was run: as §1

saracatinib = compound: CN1CCN(CCOc2cc(OC3CCOCC3)c3c(Nc4c(Cl)ccc5c4OCO5)ncnc3c2)CC1 [saracatinib]
How it was run: as §1

sotrastaurin = compound: CN1CCN(c2nc(C3=C(c4c[nH]c5ccccc45)C(=O)NC3=O)c3ccccc3n2)CC1 [sotrastaurin]
How it was run: as §1

Measured: log2 fold change

MSRB2 (UniProt Q9Y3D2)
inactive: ibrutinib 0.067 | [1] 0.078 | ralimetinib -0.007 | [2] 0.002 | [3] 0.002 | [4] 0.057 | [5] -0.035 | [6] 0.007 | [7] 0.013 | [8] -0.042 | vemurafenib 0.063 | [9] -0.06 | barasertib -0.037 | [10] 0.148 | volasertib 0.016 | [11] -0.025 | [12] -0.236 | [13] -0.054 | saracatinib 0.058 | sotrastaurin -0.016

MTMR2 (UniProt Q13614)
inactive: ibrutinib 0.016 | [1] 0.005 | ralimetinib 0.011 | [2] -0.005 | [3] -0.004 | [4] 0.021 | [5] -0.03 | [6] 0.005 | [7] -0.008 | [8] -0.005 | vemurafenib 0.023 | [9] -0.009 | barasertib 0.036 | [10] 0.055 | volasertib -0.001 | [11] 0.092 | [12] -0.048 | [13] 0.038 | saracatinib 0.027 | sotrastaurin 0.047

MTMR3 (UniProt Q13615)
inactive: ibrutinib -0.031 | [1] -0.013 | ralimetinib 0.059 | [2] 0.019 | [3] -0.02 | [4] 0.099 | [5] 0.02 | [6] 0.009 | [7] 0.013 | [8] -0.022 | vemurafenib 0.046 | [9] 0.024 | barasertib 0.012 | [10] 0.025 | volasertib -0.041 | [11] 0.053 | [12] -0.039 | [13] -0.033 | saracatinib 0.02 | sotrastaurin -0.069

MSI2 (UniProt Q96DH6)
inactive: ibrutinib 0.044 | [1] -0.024 | ralimetinib 0.032 | [2] -0.039 | [3] 0.015 | [4] -0.029 | [5] 0.009 | [7] 0.03 | [8] 0.054 | vemurafenib 0.039 | [9] -0.007 | barasertib 0.009 | [10] 0.016 | volasertib -0.023 | [11] 0.13 | [12] -0.014 | [13] 0.002 | saracatinib -0.015 | sotrastaurin -0.002
active: [6] -0.315

Looked up one by one from above, two records:
MTMR2 (UniProt Q13614)
inactive: ibrutinib 0.016 | [1] 0.005 | ralimetinib 0.011 | [2] -0.005 | [3] -0.004 | [4] 0.021 | [5] -0.03 | [6] 0.005 | [7] -0.008 | [8] -0.005 | vemurafenib 0.023 | [9] -0.009 | barasertib 0.036 | [10] 0.055 | volasertib -0.001 | [11] 0.092 | [12] -0.048 | [13] 0.038 | saracatinib 0.027 | sotrastaurin 0.047

MTMR3 (UniProt Q13615)
inactive: ibrutinib -0.031 | [1] -0.013 | ralimetinib 0.059 | [2] 0.019 | [3] -0.02 | [4] 0.099 | [5] 0.02 | [6] 0.009 | [7] 0.013 | [8] -0.022 | vemurafenib 0.046 | [9] 0.024 | barasertib 0.012 | [10] 0.025 | volasertib -0.041 | [11] 0.053 | [12] -0.039 | [13] -0.033 | saracatinib 0.02 | sotrastaurin -0.069

(next part)

MTPN (UniProt P58546)
inactive: ibrutinib -0.022 | [1] -0.034 | ralimetinib 0 | [2] 0.011 | [3] 0.011 | [4] -0.03 | [5] 0.036 | [6] -0.019 | [7] 0.039 | [8] 0.075 | vemurafenib -0.034 | [9] -0.018 | barasertib 0.119 | [10] 0.037 | volasertib 0.096 | [11] 0.087 | [12] 0.156 | [13] -0.171 | saracatinib 0.007 | sotrastaurin -0.043

MTA1 (UniProt Q13330)
inactive: ibrutinib -0.018 | [1] -0.025 | ralimetinib 0.001 | [2] 0.006 | [3] -0.007 | [4] -0.004 | [5] 0 | [6] -0.008 | [7] 0.034 | [8] -0.018 | vemurafenib -0.022 | [9] 0.011 | barasertib 0.008 | [10] -0.005 | volasertib -0.007 | [11] -0.003 | [12] 0.013 | [13] -0.061 | saracatinib 0.018 | sotrastaurin 0.036

MSL1 (UniProt Q68DK7)
inactive: ibrutinib -0.002 | [1] -0.022 | ralimetinib -0.032 | [2] -0.126 | [3] 0.028 | [4] -0.106 | [5] -0.017 | [6] 0.07 | [7] -0.014 | [8] -0.062 | vemurafenib 0.088 | [9] -0.012 | barasertib -0.06 | [10] -0.065 | volasertib 0.062 | [11] -0.169 | [12] -0.174 | [13] 0.093 | saracatinib -0.018 | sotrastaurin 0.048

MRPS18A isoform 2 (UniProt Q9NVS2)
active: [12] 0.306
inactive: ibrutinib -0.015 | [1] 0.006 | ralimetinib -0.015 | [2] -0.002 | [3] -0.046 | [4] 0.034 | [5] -0.131 | [6] 0.016 | [7] 0.043 | [8] -0.003 | vemurafenib 0.073 | [9] 0.03 | barasertib 0.037 | [10] 0.073 | volasertib -0.019 | [11] -0.04 | [13] -0.121 | saracatinib -0.042 | sotrastaurin 0.036

MT-ND5 (UniProt P03915)
inactive: ibrutinib -0.075 | [1] 0 | ralimetinib -0.014 | [2] -0.075 | [3] -0.04 | [4] 0.008 | [5] -0.096 | [6] 0.005 | [7] -0.056 | [8] 0.014 | vemurafenib -0.064 | [9] 0.001 | barasertib -0.124 | [10] 0.01 | volasertib 0.013 | [11] 0.019 | [12] 0.11 | [13] -0.044 | saracatinib 0.096 | sotrastaurin 0.022

MTX2 (UniProt O75431)
inactive: ibrutinib 0.051 | [1] 0.014 | ralimetinib -0.001 | [2] -0.003 | [3] 0.003 | [4] -0.018 | [5] 0.021 | [6] -0.014 | [7] 0.007 | [8] -0.003 | vemurafenib -0.038 | [9] -0.003 | barasertib 0.052 | [10] 0.024 | volasertib -0.019 | [11] 0 | [12] 0.097 | [13] -0.004 | saracatinib 0.047 | sotrastaurin -0.059

MRPS30 (UniProt Q9NP92)
inactive: ibrutinib 0.022 | [1] -0.069 | ralimetinib 0.049 | [2] -0.027 | [3] 0.012 | [4] 0.028 | [5] 0.006 | [6] 0.018 | [7] 0.058 | [8] -0.114 | vemurafenib 0.031 | [9] 0.047 | barasertib 0.072 | [10] -0.019 | volasertib -0.056 | [11] -0.051 | [12] -0.077 | [13] 0.046 | saracatinib 0.023 | sotrastaurin 0.006

MTMR9 (UniProt Q96QG7)
inactive: ibrutinib 0.014 | [1] 0.003 | ralimetinib -0.013 | [2] -0.021 | [3] 0.067 | [4] 0.187 | [5] -0.017 | [6] -0.038 | [7] -0.001 | [8] 0.027 | vemurafenib -0.039 | [9] 0.025 | barasertib -0.004 | [10] 0.064 | volasertib -0.045 | [11] -0.036 | [12] -0.052 | [13] 0.052 | saracatinib 0.029 | sotrastaurin 0.048

MRPS23 (UniProt Q9Y3D9)
inactive: ibrutinib 0.035 | [1] 0.017 | ralimetinib -0.038 | [2] 0.021 | [3] 0.036 | [4] -0.042 | [5] -0.029 | [6] -0.06 | [7] -0.017 | [8] 0.064 | vemurafenib -0.006 | [9] 0.018 | barasertib 0.086 | [10] -0.003 | volasertib -0.012 | [11] 0.058 | [12] 0.124 | [13] -0.117 | saracatinib 0.042 | sotrastaurin -0.003

MTFR1 (UniProt Q15390)
inactive: ibrutinib 0.036 | [1] 0.022 | ralimetinib -0.01 | [2] -0.067 | [3] 0.018 | [4] 0.105 | [5] 0.001 | [6] 0 | [7] 0.038 | [8] -0.044 | vemurafenib -0.032 | [9] 0.05 | barasertib -0.01 | [10] 0.058 | volasertib 0.036 | [11] -0.029 | [12] -0.044 | [13] -0.021 | saracatinib 0.015 | sotrastaurin -0.064

MRPL37 (UniProt Q9BZE1)
inactive: ibrutinib 0.062 | [1] -0.027 | ralimetinib -0.014 | [2] -0.003 | [3] 0.026 | [4] -0.002 | [5] -0.011 | [6] 0.068 | [7] 0.034 | [8] 0.018 | vemurafenib 0.034 | [9] 0.016 | barasertib 0 | [10] -0.098 | volasertib -0.041 | [11] -0.015 | [12] -0.024 | [13] -0.07 | saracatinib 0.005 | sotrastaurin 0.035

MSN (UniProt P26038)
inactive: ibrutinib 0.039 | [1] 0.004 | ralimetinib 0.001 | [2] 0.016 | [3] 0.002 | [4] -0.035 | [5] 0.003 | [6] -0.017 | [7] -0.019 | [8] 0.009 | vemurafenib -0.013 | [9] -0.013 | barasertib -0.027 | [10] -0.013 | volasertib 0.006 | [11] -0.002 | [12] 0.051 | [13] -0.005 | saracatinib -0.007 | sotrastaurin 0.001
